The source of these data is patent publication US20240174748A1 (INNATE PHARMA, published 2024).

By UniProt entry, the sequences of proteins in these tests, tags left out. Where a name states a change or a piece, a line headed by the entry shows the natural chain unless it says otherwise.
UniProt P55899: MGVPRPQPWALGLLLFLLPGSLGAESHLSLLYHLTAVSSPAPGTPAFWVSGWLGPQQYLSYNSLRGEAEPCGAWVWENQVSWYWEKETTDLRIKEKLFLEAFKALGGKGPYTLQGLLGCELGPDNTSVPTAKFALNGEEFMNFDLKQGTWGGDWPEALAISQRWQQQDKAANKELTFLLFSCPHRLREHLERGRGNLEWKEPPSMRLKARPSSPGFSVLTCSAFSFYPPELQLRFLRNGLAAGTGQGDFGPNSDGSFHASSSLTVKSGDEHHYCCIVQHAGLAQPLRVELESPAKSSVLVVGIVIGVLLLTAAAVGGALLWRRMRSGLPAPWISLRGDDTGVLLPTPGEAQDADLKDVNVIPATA
UniProt P61769: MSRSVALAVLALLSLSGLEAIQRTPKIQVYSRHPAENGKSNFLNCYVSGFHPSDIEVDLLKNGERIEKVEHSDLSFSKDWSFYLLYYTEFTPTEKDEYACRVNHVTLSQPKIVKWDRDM
UniProt O76036: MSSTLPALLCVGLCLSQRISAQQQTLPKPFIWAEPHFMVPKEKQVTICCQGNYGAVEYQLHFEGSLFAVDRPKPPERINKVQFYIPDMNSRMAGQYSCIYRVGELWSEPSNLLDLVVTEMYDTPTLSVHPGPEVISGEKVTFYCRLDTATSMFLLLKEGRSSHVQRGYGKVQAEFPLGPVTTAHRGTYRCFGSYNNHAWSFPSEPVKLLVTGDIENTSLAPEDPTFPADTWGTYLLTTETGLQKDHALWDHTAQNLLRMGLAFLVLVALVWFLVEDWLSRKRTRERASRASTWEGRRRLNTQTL

No constants are given. Whether binding was seen depends on the method and setting. Some results given as binding are weak or reduced against the parent protein; the word gives no strength.

Assay [1] has as its target Human FcRn (recombinant) (human) (UniProt P55899+P61769). Kind of assay: SPR, human FcRn immobilized on CM5.
Assay [2] addresses Human NKp46 recombinant protein (human) (UniProt O76036). Kind of assay: SPR, bispecific captured on Protein-A chip.

B1: CD19-F4-NKp46-3 (bispecific antibody)
chain: DIQLTQSPASLAVSLGQRATISCKASQSVDYDGDSYLNWYQQIPGQPPKLLIYDASNLVSGIPPRFSGSGSGTDFTLNIHPVEKVDAATYHCQQSTEDPWTFGGGTKLEIKGGGGSGGGGSGGGGSQVQLQQSGAELVRPGSSVKISCKASGYAFSSYWMNWVKQRPGQGLEWIGQIWPGDGDTNYNGKFKGKATLTADESSSTAYMQLSSLASEDSAVYFCARRETTTVGRYYYAMDYWGQGTTVTVSSGGGSSAPELLGGPSVFLFPPKPKDTLMISRTPEVTCVVVDVSHEDPEVKFNWYVDGVEVHNAKTKPREEQYSSTYRVVSVLTVLHQDWLNGKEYKCKVSNKALPAPIEKTISKAKGQPREPQVYTLPPSREEMTKNQVSLTCLVKGFYPSDIAVEWESNGQPENNYKTTPPVLDSDGSFFLYSKLTVDKSRWQQGNVFSCSVMHEALHNHYTQKSLSLSPGGGGGSGGGGSGGGGSGQPREPQVYTLPPSREEMTKNQVSLTCLVKGFYPSDIAVEWESNGQPENNYKTTPPVLDSDGSFFLYSKLTVDKSRWQQGNVFSCSVMHEALHNHYTQKSLSLSPGSTGSEVQLQQSGPELVKPGASVKISCKTSGYTFTEYTMHWVKQSHGKSLEWIGGISPNIGGTSYNQKFKGKATLTVDKSSSTAYMELRSLTSEDSAVYYCARRGGSFDYWGQGTTLTVSSVEGGSGGSGGSGGSGGVDDIVMTQSPATLSVTPGDRVSLSCRASQSISDYLHWYQQKSHESPRLLIKYASQSISGIPSRFSGSGSGSDFTLSINSVEPEDVGVYYCQNGHSFPLTFGAGTKLELK
B1: the binding result in assay [1] is “binds”.

B2: CD19-F11-NKp46-3 (bispecific antibody)
chain 1: DIQLTQSPASLAVSLGQRATISCKASQSVDYDGDSYLNWYQQIPGQPPKLLIYDASNLVSGIPPRFSGSGSGTDFTLNIHPVEKVDAATYHCQQSTEDPWTFGGGTKLEIKGGGGSGGGGSGGGGSQVQLQQSGAELVRPGSSVKISCKASGYAFSSYWMNWVKQRPGQGLEWIGQIWPGDGDTNYNGKFKGKATLTADESSSTAYMQLSSLASEDSAVYFCARRETTTVGRYYYAMDYWGQGTTVTVSSGGGSSAPELLGGPSVFLFPPKPKDTLMISRTPEVTCVVVDVSHEDPEVKFNWYVDGVEVHNAKTKPREEQYSSTYRVVSVLTVLHQDWLNGKEYKCKVSNKALPAPIEKTISKAKGQPREPQVYTLPPSREEMTKNQVSLTCLVKGFYPSDIAVEWESNGQPENNYKTTPPVLDSDGSFFLYSKLTVDKSRWQQGNVFSCSVMHEALHNHYTQKSLSLSPGGGGGSGGGGSGGGGSGQPREPQVYTLPPSREEMTKNQVSLTCLVKGFYPSDIAVEWESNGQPENNYKTTPPVLDSDGSFFLYSKLTVDKSRWQQGNVFSCSVMHEALHNHYTQKSLSLSPGSTGSEVQLQQSGPELVKPGASVKISCKTSGYTFTEYTMHWVKQSHGKSLEWIGGISPNIGGTSYNQKFKGKATLTVDKSSSTAYMELRSLTSEDSAVYYCARRGGSFDYWGQGTTLTVSSRTVAAPSVFIFPPSDEQLKSGTASVVCLLNNFYPREAKVQWKVDNALQSGNSQESVTEQDSKDSTYSLSSTLTLSKADYEKHKVYACEVTHQGLSSPVTKSFNRGEC
chain 2: DIVMTQSPATLSVTPGDRVSLSCRASQSISDYLHWYQQKSHESPRLLIKYASQSISGIPSRFSGSGSGSDFTLSINSVEPEDVGVYYCQNGHSFPLTFGAGTKLELKASTKGPSVFPLAPSSKSTSGGTAALGCLVKDYFPEPVTVSWNSGALTSGVHTFPAVLQSSGLYSLSSVVTVPSSSLGTQTYICNVNHKPSNTKVDKRVEPKSCDKTH
B2: the binding result in assay [1] and in assay [2] was “binds” in each case.
